# From US7718377B2, “Insulin resistance curative and method of screening the same” (Kyoto Pharmaceutical Industries, Ltd., priority 2003, dated 2010)
# At least one structure is not confirmed: it was looked up by name or label, or the drawing left a doubt.
# Target: T1, human PTP-1B (1-321) (Homo sapiens, UniProt P18031)
# T1 construct: ID No.2; made in house; host or cells: Escherichia coli BL21 DE3 (plasmid pET-hPTP1B (1-321), vector pET-11c)
# T1 sequence (P18031 1-321): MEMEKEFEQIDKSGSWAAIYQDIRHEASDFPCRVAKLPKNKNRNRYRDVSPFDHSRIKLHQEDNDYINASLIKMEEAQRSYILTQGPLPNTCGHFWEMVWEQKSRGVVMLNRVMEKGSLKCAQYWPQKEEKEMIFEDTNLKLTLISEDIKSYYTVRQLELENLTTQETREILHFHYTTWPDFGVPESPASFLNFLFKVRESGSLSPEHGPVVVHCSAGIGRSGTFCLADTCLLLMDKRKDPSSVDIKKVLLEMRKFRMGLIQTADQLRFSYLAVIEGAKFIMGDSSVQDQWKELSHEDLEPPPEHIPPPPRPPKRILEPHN
# Assay: Determination of PTP-1B enzyme inhibitory activity (phosphopeptide substrate, malachite green)
# Format: biochemical
# Conditions: conclusion from Table 1
# Excerpt: As the substrates for PTP-1B enzyme reaction, synthetic peptides consisting of the following amino acid sequence: • Thr-Arg-Asp-Ile-Tyr (PO4)-Glu-Thr-Asp-Tyr (PO4)-Tyr (PO4)-Arg-Lys (SEQ; NO. 5), wherein 3 tyrosines had been all phosphorylated, were used (synthesis committed to Shimadzu Scientific Research Inc. (Chiyoda-ku, Tokyo)). [According to the amino acid numbers based on the report of Ullrich et al. (Nature, vol. 313, pages 756-761, 1985), this amino acid sequence corresponds to Nos. 1142-1153 of insulin receptor, and corresponds to Nos. 1169-1180 in the amino acid sequence of the insulin receptor precursor registered in Genbank No. X02160.]
# This peptide substrate and a PTP-1B enzyme were reacted and the enzyme activity was determined by quantitation of inorganic phosphoric acid released from the substrate by the reaction. […]
# For quantitation of released inorganic phosphoric acid, malachite green solution (90 μl, manufactured by BIOMOL Research Laboratories, Inc.) was added to each well, and the mixture was left standing at room temperature for about 10 min and the absorbance at 650 nm was measured with a microplate reader. Linearity was mostly observed between the absorbance and the phosphoric acid concentration generally within the absorbance range of from 0.05 to 0.6 (phosphoric acid from about […]) under these conditions. […]
structure (smiles),measurement,value
"CN(CCOc1ccc(CC2SC(=O)NC2=O)cc1)c1ccccn1 (stereo not shown) [Rosiglitazone, reference compound]",PTP-1B enzyme inhibitory activity (in words),scarcely has PTP-1B enzyme inhibitory activity
